# Test: general procedure: Fmoc solid-phase peptide synthesis; 2-chlorotrityl chloride resin (2-CTC); PyBOP (folic acid coupling on resin)
# [1] = whole synthesis, LC-MS, scale of the general procedure 319 mg resin
substance,measurement,setting,value
NODAGA(tBu)3-[Lys-(HE)2]-Folic Acid,conjugation yield,conjugation step,25%
same,final LC-MS purity,"conjugation step, LC-MS",99%
NODAGA-[Lys-(HE)2]-folic acid,step yield,late stage modification step,86%
same,crude LC-MS purity,"late stage modification step, LC-MS",94%
same,purity (crude or final not stated),[1],≥ 99%
[Lys-(HE)2]-Folic Acid,crude mass,whole synthesis,116 mg
same,crude LC-MS purity,[1],92%
same,crude yield,"whole synthesis, scale of the general procedure 319 mg resin",52%
